Results as given in US20120321697A1, “BPB-BASED CARGO DELIVERY SYSTEM” (GWANGJU INSTITUTE OF SCIENCE AND TECHNOLOGY, priority 2009, published 2012).
Results are given in words; binding and its absence hold for the method and conditions named.

Columns and labels:
Assay in all cases: phage ELISA (anti-M13-HRP, absorbance at 450 nm), proteins coated at 5 µg/ml
lysozyme = target: lysozyme
Myoglobin = target: Myoglobin
Visfatin = target: Visfatin
Avidin = target: Avidin
CD7 = target: CD7

B1: Peptide 2 specific to fibronectin ED-B (peptide)
peptide: HCSSAVGSWTWENGKWTWKGIIRLEQ
For B1, the binding (lysozyme) was “no binding”, the binding (Myoglobin) was “no binding” and the binding (Visfatin) was “no binding”.

B2: Peptide 1 specific to VEGF (peptide)
peptide: HANFFQGSWTWENGKWTWKGWKYNQS
B2 was tested, and the binding (Avidin) was “no binding”.

B3: Peptide 1 specific to nAchR (peptide)
peptide: EASFWLGSWTWENGKWTWKGKGTLNR
For B3, the binding (Myoglobin) was “no binding” and the binding (Avidin) was “no binding”.

B4: Peptide 1 specific to VCAM1 (peptide)
peptide: QARDCTGSWTWENGKWTWKGPSICPI
With B4 the binding (lysozyme) was “no binding” and the binding (Myoglobin) was “no binding”.

B5: Peptide 1 specific to HSA (peptide)
peptide: AASPYKGSWTWENGKWTWKGGWRMKM
In the case of B5, the binding (Visfatin) is reported as “no binding”.

B6: Peptide 1 specific to MyD88 (peptide)
peptide: HSHAFYGSWTWENGKWTWKGNPGWWT
For B6, the binding (CD7) was “no binding”.
